Measured values: article PMC8761496
No constants are given. Whether binding was seen depends on the method and setting. In cells and extracts the contact can be indirect. A result given as binding can be weak or reduced; the word gives no strength. Where a sequence is shown, tags or fusion partners need not be part of it.

T1: Chl1-Myc (S. cerevisiae) (UniProt P22516)
T1 sequence: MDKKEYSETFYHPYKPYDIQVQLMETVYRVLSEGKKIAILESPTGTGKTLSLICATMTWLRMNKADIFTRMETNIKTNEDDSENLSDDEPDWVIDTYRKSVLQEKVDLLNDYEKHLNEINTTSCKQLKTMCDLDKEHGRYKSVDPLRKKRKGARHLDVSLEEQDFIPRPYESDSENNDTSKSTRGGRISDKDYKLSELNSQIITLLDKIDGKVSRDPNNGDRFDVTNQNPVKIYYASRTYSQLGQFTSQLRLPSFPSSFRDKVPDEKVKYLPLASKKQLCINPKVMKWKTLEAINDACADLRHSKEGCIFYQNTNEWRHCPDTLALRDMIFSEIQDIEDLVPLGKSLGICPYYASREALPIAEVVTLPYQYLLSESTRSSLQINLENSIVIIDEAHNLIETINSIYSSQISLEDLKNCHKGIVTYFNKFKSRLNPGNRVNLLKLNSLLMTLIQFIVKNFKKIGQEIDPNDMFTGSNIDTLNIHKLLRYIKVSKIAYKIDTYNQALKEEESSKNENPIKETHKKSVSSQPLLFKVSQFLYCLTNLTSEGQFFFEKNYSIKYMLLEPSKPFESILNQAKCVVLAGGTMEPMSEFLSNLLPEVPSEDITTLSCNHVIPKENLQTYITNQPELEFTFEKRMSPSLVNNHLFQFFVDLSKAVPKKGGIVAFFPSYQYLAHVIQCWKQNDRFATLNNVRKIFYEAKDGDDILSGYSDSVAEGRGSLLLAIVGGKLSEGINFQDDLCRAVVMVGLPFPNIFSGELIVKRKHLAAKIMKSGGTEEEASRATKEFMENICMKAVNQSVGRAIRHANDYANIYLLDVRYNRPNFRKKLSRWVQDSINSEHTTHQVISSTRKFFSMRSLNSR


Key:
Chl1-Myc (S. cerevisiae) = target: T1, Chl1-Myc (S. cerevisiae); assay: co-IP; extracts of ground frozen yeast cells in lysis buffer (100 mM HEPES-KOH pH 7.9, 50 mM potassium acetate, 10 mM magnesium acetate, 2 mM EDTA); Dynabeads with anti-Myc (9B11) or anti-HA (HA-7), IgG only as control; blots probed for Myc and HA; cells synchronized in G1 and released in 0.2 M HU for 40 min, or released at 20°C for 25 min (unperturbed)
[1] = target: DNA polymerase α (Pol α)-HA (S. cerevisiae); assay: as above

| Molecule | binding (Chl1-Myc (S. cerevisiae)) | binding [1] |
| --- | --- | --- |
| DNA polymerase α (Pol α)-HA (S. cerevisiae) | binds | – |
| Chl1-Myc (protein, UniProt P22516 1-861) MDKKEYSETFYHPYKPYDIQVQLMETVYRVLSEGKKIAILESPTGTGKTLSLICATMTWLRMNKADIFTRMETNIKTNEDDSENLSDDEPDWVIDTYRKSVLQEKVDLLNDYEKHLNEINTTSCKQLKTMCDLDKEHGRYKSVDPLRKKRKGARHLDVSLEEQDFIPRPYESDSENNDTSKSTRGGRISDKDYKLSELNSQIITLLDKIDGKVSRDPNNGDRFDVTNQNPVKIYYASRTYSQLGQFTSQLRLPSFPSSFRDKVPDEKVKYLPLASKKQLCINPKVMKWKTLEAINDACADLRHSKEGCIFYQNTNEWRHCPDTLALRDMIFSEIQDIEDLVPLGKSLGICPYYASREALPIAEVVTLPYQYLLSESTRSSLQINLENSIVIIDEAHNLIETINSIYSSQISLEDLKNCHKGIVTYFNKFKSRLNPGNRVNLLKLNSLLMTLIQFIVKNFKKIGQEIDPNDMFTGSNIDTLNIHKLLRYIKVSKIAYKIDTYNQALKEEESSKNENPIKETHKKSVSSQPLLFKVSQFLYCLTNLTSEGQFFFEKNYSIKYMLLEPSKPFESILNQAKCVVLAGGTMEPMSEFLSNLLPEVPSEDITTLSCNHVIPKENLQTYITNQPELEFTFEKRMSPSLVNNHLFQFFVDLSKAVPKKGGIVAFFPSYQYLAHVIQCWKQNDRFATLNNVRKIFYEAKDGDDILSGYSDSVAEGRGSLLLAIVGGKLSEGINFQDDLCRAVVMVGLPFPNIFSGELIVKRKHLAAKIMKSGGTEEEASRATKEFMENICMKAVNQSVGRAIRHANDYANIYLLDVRYNRPNFRKKLSRWVQDSINSEHTTHQVISSTRKFFSMRSLNSR | – | binds |
